From patent publication CN108341870A
Results are given in words; binding and its absence hold for the method and conditions named. Some results given as binding are weak or reduced against the parent protein; the word gives no strength.

Chains of the proteins cited; added tags and fusions are not shown. Residues count along the entry.
UniProt P02769, residues 25-607: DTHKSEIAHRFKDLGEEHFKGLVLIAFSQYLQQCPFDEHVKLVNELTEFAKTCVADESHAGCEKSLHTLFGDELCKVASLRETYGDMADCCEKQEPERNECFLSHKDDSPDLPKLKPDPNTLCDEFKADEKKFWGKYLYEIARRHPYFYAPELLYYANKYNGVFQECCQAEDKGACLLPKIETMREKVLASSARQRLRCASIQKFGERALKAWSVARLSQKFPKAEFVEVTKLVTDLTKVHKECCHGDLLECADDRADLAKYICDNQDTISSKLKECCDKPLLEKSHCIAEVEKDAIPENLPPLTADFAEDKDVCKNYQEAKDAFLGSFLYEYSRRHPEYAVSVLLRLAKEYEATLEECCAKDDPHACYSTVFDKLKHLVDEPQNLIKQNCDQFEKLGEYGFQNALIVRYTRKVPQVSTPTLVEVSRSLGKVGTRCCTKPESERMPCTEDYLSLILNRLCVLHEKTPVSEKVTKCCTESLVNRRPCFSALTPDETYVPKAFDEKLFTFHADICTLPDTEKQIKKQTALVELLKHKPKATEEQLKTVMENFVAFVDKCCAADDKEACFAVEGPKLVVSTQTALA

How the values were obtained:
[1] = target: 牛血清白蛋白 (bovine serum albumin, BSA) (牛 (bovine)) (UniProt P02769); test: PHAGE-ELISA, BSA coated, phagemid clone in the binding step, OD450
[2] = target: 牛血清白蛋白 (bovine serum albumin, BSA) (牛 (bovine)) (UniProt P02769); test: PHAGE-ELISA, BSA coated, phagemid clone in the binding step

B1: 抗BSA纳米抗体 克隆7 (anti-BSA nanobody, phagemid clone 7) (VHH)
VHH: QLQLVESGGGLVQPGGSLRLSCAASGSTFGTYAVGWFRQAPGKEREGISCISGRGERTYYADSVKGRFTISRDNAKSVLYLQMNNVNAEDTAVYYCALARWRGSACGPITPMGQGTQVTVSS
For B1, which binding [1] is on record?
The binding was “binds”.

And the binding [2]?
The binding was “binds”.
